Percent effect of library compounds

From ChEMBL document CHEMBL3988442, “University of Dundee, Small-Polar-MMV Screening Library” (2021).

Each number is a percent effect as filed. The record does not define 0% and 100%; most values in the screen are far below 50% and negative numbers occur (in some assays of this library far below -100). Compounds were drawn at random from those tested, without regard to their results.

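Whole-parasite assay of Trypanosoma brucei over 72 hours; the read-out is not stated. Compounds at 30 µM. The record gives no direction; compounds that gave an IC50 in retests scored well above the rest, so higher reads as stronger inhibition. Values scatter widely below zero; nearly all retest evidence comes from the higher of the two concentrations used. Of about 64,000 compounds tested this way, about 940 (1.5%) reached 50% or more in at least one test.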

* CN1CCN2CCN(Cc3cnc(NCc4ccccc4)nc3)CC2C1 (stereo not shown) | -14.7%
* COc1cccc(Cl)c1C(C(=O)O)N1CCC(Cn2cccn2)CC1 (stereo not shown) | -16.19%
* CN1CCC(c2nnc(CN3CCCC3)n2C2CC2)CC1 | -4.637%
* Cc1ccc(CNCCOc2ccc(S(C)(=O)=O)cc2)cc1 | -48.76%
* Fc1cnc(N2CCC3(COCc4cnc(NCC5CC5)nc43)C2)nc1 (stereo not shown) | -26.08%
* CC(C)(C)NC(=O)c1ccc(COCC(F)(F)F)o1 | -23.27%
* Cn1nnc2c1C(COCC1CC1)CN(C(=O)Cc1cccs1)C2 (stereo not shown) | -1.242%
* CCn1cnc(NC(=O)NCC2CCS(=O)(=O)CC2)n1 | -26.5%
* O=C(O)C(F)(F)F.[H][C@@]12CCN(C(=O)c3ccsc3)[C@]1([H])CCC(=O)N2Cc1cccc(C)n1 | -12.37%
* Cc1ccc(CN2CCC3(CC2)CC(c2cccnc2)CO3)s1.O=C(O)C(F)(F)F.O=C(O)C(F)(F)F (stereo not shown) | 11.9%
* CCN(CC1CCCN(CCc2cccc(OC)c2)C1)C(=O)CSC (stereo not shown) | -5.701%
* CNc1nc2c(s1)C(c1cccc(Cl)c1Cl)CC(=O)N2 (stereo not shown) | -0.754%
* COc1cc2c(nn1)CCN(CC(O)COc1ccc(C#N)cc1)C2 (stereo not shown) | -14.59%
* CSCCC1c2nc[nH]c2CCN1Cc1ccnc2ccccc12 (stereo not shown) | 10.75%
* CC(=O)c1cccc(NC(=O)CN2CCCCC2C)c1 (stereo not shown) | -92.14%
* Cc1cc(C)n(Cc2ccc(C(=O)N3CCOCC3(C)C)cc2)n1 | -46.85%
* Cc1cc(C(C)(O)CNC(=O)OC(C)(C)C)c(C)o1 (stereo not shown) | 0.6947%
* Cc1n[nH]c(-c2ccc(NC(=O)C(C)(C)N3CCN(C)CC3)cc2)n1 | 2.955%
* COc1cc(NC(=O)c2ccc(C)c(F)c2)c(C(=O)N(C)C)cc1OC | 29.51%
* CCN(c1ccc(C(=O)N2CCCC(C)C2)cc1)S(=O)(=O)CC (stereo not shown) | -18.21%
* CC(Oc1ccc(F)cc1F)C(=O)N1CCC2(CCCO2)CC1 (stereo not shown) | -40.87%
* Cc1nc(O)cc(C2(C)CCCNC2)n1.Cl (stereo not shown) | -6.99%
* O=C1CC(c2cccnc2)c2c(c(C(=O)O)cn2-c2ccc(Cl)cc2)N1 (stereo not shown) | 4.28%
* O=C(O)C(F)(F)F.O=S(=O)(C1CC1)N1CCc2onc(COc3ccccn3)c2C1 | -75.11%
* O=C(C1CN(CC2CCOCC2)CC12CCOCC2)N1CCCC1.O=C(O)C(F)(F)F (stereo not shown) | -26.02%
* COc1cccc(-c2n[nH]cc2-c2nc(CC3CCN(C)CC3)no2)c1 | -15.2%
* CC(=O)N1CCC(CSCc2ccco2)CC1 | -49.37%
* CN(CC(=O)N1CCC(C(O)c2ccccc2)CC1)c1cnccn1 (stereo not shown) | 12.94%
* COc1ncc(-c2cc(-c3ccn(C)c3)nc(N)c2C#N)cn1 | -14.16%
* Cc1cnn(CCNCC(=O)NCc2ccccc2)c1 | 18.01%
* O=C(Cc1cc2c(cc1Br)OCCO2)NC1CCS(=O)(=O)C1 (stereo not shown) | -25.42%
* Cc1cccc(S(=O)(=O)N2Cc3nccn3CC(CN(C)C)C2)c1 (stereo not shown) | -6.83%
* CC1COCCN1C(=O)Cc1cc(Cl)c2c(c1)OCCO2 (stereo not shown) | -58.63%
* Cc1cc(C(=O)NCc2ccnc(N3CCN(C)CC3)c2)c(C)s1 | -15.58%
* Cl.O=C1NCCCCC1NCc1csc(-c2ccc(F)cc2)n1 (stereo not shown) | -21.14%
* O=C(Cn1ccc2ccccc21)Nc1cc(N2CCCC2)ncn1 | 1.206%
* CSC(CNS(N)(=O)=O)c1cccc(Cl)c1 (stereo not shown) | -7.012%
* CNC(=O)c1cn[nH]c1C1(C)CCCN(Cc2nccn2C(C)C)C1 (stereo not shown) | -12.43%
* [H][C@]12CC[C@]([H])(CN(c3ncccn3)C1)N(C(=O)c1ccc[nH]1)C2 | 17.19%
* [H][C@@]12OCCN(Cc3ccoc3)[C@@]1([H])CC[C@H]2OCc1cccc(C)n1 | -57.93%
* Cc1nc(CN2CCC3(CCN(c4ncc(F)cn4)C3)C2=O)cs1.O=C(O)C(F)(F)F (stereo not shown) | -35.73%
* CC(C)c1nnsc1CN1CCc2[nH]nc(-c3ccc(Cl)cc3)c2C1 | 100.2%
* CC(=O)Nn1ccc2c(nnc3c(-c4ccccc4)cnn32)c1=O | -42.9%
* Cc1ncc(C(=O)N2CC(C(=O)N3CCCCCC3)C2)c(C)n1 | -25.34%
* Cc1cc(CNCC2(O)CCCN(CCCc3ccccc3)C2=O)n[nH]1 (stereo not shown) | -40.14%
* Cc1cc(NC(=O)CCN2CCCCC2Cn2cncn2)no1 (stereo not shown) | 12.21%
* Cc1cccc(-c2nccnc2C2CCN(C)CC2)c1C | -5.006%
* CN(C)C(=O)C1CCN(Cn2ccc(-c3ccc(F)cc3)n2)CC1 | 3.733%
* O=C(CCn1cnnc1)N1CCCC(c2ncc[nH]2)C1 (stereo not shown) | -69.73%
* COC[C@@H]1CCCN1C(=O)c1cc(-c2ccc(OC)cc2)n[nH]1 | -9.555%
* CCn1cnnc1C1CCN(C(=O)c2cnc3ccccc3n2)CC1 | 13.85%
* COc1cc(C)nc(N2CCN(C(=O)CN(C)C3CC3)CC2)n1 | -22.54%
* CN1CCOC(CNCc2coc(-c3cccs3)n2)C1 (stereo not shown) | -23.33%
* Cc1cc(-c2cnc(NC3CC3)nc2-c2ccoc2)on1 | -6.48%
* CNS(=O)(=O)CCCN1CCCC1c1cc(C)on1 (stereo not shown) | -39.8%

4 of the entries, repeated:

compound,effect
COc1cccc(-c2n[nH]cc2-c2nc(CC3CCN(C)CC3)no2)c1,-15.2%
CC1COCCN1C(=O)Cc1cc(Cl)c2c(c1)OCCO2 (stereo not shown),-58.63%
Cc1cc(C(=O)NCc2ccnc(N3CCN(C)CC3)c2)c(C)s1,-15.58%
Cl.O=C1NCCCCC1NCc1csc(-c2ccc(F)cc2)n1 (stereo not shown),-21.14%